According to patent publication US20250049677A1, “Oxa-Macrocyclic Musk as Fragrance Compounds” (Symrise AG, priority 2021, published 2025):

Experiment: Odor description of the prepared compound
Details: odour description printed after the preparation of the compound

## O=C1CCC=CCCCCCCCCOC1 [A, 1-oxacyclopentadec-6-en-3-one]
  Odor: Creamy, animalic and musk

## O=C1CCC=CCCCCCCCCCOC1 [B, 1-oxacyclohexadec-6-en-3-one]
  Odor: Musk, animalic

## CC1=CCCCCCCCCCOCC(=O)CC1 [C, 6-methyl-1-oxacyclohexadec-6-en-3-one]
  Odor: Strong musk, ergon, powdery, creamy

## O=C1COCC=CCCCCCCCCCOC1 [E, 1,5-dioxacycloheptadec-15-en-3-one]
  Odor: powdery, musky
